Laboratory results as given in paper PMC10147683.
These are yes or no findings as the source states them, for the method shown. Binding seen in cells or lysates may run through a third protein. These calls come from enrichment with a bait or labelling near it, and not all partners need be listed.

The chains behind the UniProt entries cited, without tags or fusion partners.
UniProt P18615: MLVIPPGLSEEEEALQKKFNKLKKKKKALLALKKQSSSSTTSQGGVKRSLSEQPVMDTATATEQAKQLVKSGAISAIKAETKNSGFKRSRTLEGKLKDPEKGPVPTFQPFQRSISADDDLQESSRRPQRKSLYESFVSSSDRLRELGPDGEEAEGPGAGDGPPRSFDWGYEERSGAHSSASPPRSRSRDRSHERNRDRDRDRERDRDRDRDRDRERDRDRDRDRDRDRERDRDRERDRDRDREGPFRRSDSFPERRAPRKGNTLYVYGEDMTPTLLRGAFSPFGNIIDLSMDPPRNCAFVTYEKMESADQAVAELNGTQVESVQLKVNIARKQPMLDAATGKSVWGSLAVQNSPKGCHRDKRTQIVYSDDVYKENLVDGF
UniProt P09104: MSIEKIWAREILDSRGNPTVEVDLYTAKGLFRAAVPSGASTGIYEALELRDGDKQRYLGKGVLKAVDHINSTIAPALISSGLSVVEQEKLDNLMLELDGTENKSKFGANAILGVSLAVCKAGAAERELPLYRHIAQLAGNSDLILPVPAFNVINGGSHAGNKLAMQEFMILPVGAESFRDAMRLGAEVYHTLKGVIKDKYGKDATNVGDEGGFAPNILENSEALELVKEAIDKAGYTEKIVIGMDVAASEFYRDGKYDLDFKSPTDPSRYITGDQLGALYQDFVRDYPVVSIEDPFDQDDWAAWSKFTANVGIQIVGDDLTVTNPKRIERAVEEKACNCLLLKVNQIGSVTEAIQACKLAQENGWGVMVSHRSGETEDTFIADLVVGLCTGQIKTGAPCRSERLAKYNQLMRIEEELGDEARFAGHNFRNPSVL
UniProt P12004: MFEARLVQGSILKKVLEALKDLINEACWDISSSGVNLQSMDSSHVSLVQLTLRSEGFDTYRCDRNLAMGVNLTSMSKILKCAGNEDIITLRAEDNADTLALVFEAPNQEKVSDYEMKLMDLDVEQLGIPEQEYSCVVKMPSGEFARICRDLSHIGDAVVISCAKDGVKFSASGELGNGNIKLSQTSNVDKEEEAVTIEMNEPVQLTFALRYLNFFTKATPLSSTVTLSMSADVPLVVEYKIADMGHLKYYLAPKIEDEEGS
UniProt Q99873: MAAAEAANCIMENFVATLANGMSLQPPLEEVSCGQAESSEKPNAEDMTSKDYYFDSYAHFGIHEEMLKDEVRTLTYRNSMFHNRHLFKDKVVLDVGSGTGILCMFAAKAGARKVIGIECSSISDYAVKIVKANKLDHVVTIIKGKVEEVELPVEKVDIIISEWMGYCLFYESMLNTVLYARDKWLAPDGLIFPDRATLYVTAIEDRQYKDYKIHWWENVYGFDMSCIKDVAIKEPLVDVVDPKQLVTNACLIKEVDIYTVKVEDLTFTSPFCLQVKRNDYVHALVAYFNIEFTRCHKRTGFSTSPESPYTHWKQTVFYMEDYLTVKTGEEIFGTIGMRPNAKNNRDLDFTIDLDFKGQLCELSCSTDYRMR
UniProt Q09161: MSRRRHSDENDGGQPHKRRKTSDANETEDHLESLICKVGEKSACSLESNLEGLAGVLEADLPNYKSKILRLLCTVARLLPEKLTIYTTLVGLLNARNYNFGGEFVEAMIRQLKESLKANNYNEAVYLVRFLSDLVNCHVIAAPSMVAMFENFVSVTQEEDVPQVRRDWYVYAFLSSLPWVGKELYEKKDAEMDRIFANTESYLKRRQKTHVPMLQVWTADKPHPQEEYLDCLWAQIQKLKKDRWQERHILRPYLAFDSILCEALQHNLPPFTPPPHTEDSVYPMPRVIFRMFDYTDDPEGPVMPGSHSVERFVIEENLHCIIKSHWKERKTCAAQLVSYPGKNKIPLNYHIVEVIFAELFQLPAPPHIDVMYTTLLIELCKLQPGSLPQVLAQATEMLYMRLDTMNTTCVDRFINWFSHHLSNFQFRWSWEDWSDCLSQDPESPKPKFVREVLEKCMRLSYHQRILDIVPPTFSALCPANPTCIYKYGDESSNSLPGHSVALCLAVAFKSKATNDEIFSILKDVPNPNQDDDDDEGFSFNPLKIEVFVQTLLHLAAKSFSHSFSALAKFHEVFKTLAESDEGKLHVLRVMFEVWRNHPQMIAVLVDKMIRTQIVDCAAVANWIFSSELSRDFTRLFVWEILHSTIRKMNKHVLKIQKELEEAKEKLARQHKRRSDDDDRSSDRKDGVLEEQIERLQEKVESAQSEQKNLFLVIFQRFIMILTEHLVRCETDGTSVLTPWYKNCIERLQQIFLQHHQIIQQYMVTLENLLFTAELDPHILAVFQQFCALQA
UniProt O43143: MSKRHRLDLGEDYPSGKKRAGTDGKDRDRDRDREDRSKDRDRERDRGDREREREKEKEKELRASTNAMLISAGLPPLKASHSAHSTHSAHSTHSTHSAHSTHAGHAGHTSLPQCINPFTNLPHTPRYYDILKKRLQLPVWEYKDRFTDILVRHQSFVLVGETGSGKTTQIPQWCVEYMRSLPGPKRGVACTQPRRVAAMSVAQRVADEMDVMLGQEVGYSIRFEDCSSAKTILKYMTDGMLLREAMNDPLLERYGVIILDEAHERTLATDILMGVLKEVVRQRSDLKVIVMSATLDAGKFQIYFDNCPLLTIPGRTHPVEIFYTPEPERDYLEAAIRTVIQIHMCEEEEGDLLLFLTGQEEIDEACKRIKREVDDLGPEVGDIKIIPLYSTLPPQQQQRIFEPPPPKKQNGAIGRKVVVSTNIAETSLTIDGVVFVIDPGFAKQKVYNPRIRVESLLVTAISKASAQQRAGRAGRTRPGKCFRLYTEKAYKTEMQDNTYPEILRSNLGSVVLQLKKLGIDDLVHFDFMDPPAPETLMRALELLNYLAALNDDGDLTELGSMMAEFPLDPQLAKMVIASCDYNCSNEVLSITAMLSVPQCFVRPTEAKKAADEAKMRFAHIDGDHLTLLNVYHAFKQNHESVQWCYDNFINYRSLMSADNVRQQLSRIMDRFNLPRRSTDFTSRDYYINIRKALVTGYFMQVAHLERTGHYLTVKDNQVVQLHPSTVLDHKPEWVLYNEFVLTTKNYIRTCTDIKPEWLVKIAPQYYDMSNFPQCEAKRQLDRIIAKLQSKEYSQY
UniProt Q13185: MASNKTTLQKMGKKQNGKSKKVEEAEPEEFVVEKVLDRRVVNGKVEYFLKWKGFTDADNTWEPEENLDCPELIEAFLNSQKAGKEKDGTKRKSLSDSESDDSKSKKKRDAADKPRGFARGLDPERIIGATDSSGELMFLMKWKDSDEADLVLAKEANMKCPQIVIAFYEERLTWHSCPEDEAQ
UniProt P48436: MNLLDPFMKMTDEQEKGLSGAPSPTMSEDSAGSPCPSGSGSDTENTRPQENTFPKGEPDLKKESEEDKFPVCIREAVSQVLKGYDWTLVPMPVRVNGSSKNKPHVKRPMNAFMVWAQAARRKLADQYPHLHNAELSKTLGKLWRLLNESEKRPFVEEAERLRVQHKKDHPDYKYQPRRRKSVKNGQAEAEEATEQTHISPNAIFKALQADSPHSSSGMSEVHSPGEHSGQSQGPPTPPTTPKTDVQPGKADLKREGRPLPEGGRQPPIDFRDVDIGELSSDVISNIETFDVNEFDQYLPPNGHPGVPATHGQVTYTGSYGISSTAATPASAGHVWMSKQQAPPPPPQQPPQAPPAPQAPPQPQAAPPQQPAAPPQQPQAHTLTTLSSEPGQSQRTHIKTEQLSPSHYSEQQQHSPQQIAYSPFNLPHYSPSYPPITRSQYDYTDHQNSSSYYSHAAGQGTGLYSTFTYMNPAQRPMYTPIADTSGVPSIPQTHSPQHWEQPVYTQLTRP
UniProt Q9NR30: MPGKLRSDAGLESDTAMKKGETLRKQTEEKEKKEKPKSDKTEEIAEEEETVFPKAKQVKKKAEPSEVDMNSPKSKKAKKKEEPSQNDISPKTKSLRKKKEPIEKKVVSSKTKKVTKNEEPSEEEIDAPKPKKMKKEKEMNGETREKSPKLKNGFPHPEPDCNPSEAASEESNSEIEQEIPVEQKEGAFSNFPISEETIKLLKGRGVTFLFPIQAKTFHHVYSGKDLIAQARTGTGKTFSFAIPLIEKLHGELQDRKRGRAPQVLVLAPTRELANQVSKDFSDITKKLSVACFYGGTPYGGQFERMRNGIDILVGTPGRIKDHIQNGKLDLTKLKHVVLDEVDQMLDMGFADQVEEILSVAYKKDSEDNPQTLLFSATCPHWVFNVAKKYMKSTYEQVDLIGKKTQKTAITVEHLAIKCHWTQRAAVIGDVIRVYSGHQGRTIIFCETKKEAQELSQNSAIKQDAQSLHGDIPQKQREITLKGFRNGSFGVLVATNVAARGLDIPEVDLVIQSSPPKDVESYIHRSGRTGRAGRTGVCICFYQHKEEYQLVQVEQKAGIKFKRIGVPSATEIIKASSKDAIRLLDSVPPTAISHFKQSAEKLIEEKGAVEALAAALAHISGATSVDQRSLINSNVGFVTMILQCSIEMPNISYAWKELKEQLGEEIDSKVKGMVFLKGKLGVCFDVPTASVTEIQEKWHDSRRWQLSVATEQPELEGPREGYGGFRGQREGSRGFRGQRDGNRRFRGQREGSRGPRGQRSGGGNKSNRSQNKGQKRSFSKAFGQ
UniProt Q9Y265: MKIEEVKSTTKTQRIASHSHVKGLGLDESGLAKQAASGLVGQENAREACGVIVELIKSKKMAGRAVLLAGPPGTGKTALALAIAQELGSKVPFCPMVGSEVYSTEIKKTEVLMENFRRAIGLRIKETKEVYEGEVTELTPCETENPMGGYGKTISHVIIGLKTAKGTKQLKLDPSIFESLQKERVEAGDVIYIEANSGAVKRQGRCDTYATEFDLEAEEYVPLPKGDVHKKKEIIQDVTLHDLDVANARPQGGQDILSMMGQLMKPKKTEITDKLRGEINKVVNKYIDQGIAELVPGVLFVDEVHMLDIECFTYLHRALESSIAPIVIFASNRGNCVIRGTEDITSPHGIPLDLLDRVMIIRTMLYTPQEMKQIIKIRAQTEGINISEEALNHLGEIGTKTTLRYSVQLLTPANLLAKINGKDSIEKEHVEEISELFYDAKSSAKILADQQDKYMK
UniProt P06733: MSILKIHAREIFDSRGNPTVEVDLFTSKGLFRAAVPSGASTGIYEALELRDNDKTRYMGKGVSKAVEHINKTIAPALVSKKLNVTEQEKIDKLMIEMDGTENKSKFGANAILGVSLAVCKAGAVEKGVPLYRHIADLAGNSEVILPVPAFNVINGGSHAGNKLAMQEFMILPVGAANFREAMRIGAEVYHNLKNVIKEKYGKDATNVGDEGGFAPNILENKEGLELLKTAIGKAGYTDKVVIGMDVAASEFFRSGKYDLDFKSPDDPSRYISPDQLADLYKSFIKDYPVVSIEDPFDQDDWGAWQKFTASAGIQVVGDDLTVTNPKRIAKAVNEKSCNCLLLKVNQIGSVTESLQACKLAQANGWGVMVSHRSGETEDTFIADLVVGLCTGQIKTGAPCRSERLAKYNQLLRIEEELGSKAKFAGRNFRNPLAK
UniProt P09429: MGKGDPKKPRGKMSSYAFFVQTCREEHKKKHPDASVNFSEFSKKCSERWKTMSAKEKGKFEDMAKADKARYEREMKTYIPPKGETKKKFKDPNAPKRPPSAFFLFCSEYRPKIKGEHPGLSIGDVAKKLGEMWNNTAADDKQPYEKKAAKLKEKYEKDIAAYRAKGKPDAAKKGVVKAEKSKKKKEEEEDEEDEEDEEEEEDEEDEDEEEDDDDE

B1: SRSF7 (protein, UniProt Q16629 1-238)
chain: MSRYGRYGGETKVYVGNLGTGAGKGELERAFSYYGPLRTVWIARNPPGFAFVEFEDPRDAEDAVRGLDGKVICGSRVRVELSTGMPRRSRFDRPPARRPFDPNDRCYECGEKGHYAYDCHRYSRRRRSRSRSRSHSRSRGRRYSRSRSRSRGRRSRSASPRRSRSISLRRSRSASLRRSRSGSIKGSRYFQSPSRSRSRSRSISRPRSSRSKSRSPSPKRSRSPSGSPRRSASPERMD
B2: SLUG (doxycycline-induced in MCF7ras+SS) (protein, UniProt O43623 1-268)
chain: MPRSFLVKKHFNASKKPNYSELDTHTVIISPYLYESYSMPVIPQPEILSSGAYSPITVWTTAAPFHAQLPNGLSPLSGYSSSLGRVSPPPPSDTSSKDHSGSESPISDEEERLQSKLSDPHAIEAEKFQCNLCNKTYSTFSGLAKHKQLHCDAQSRKSFSCKYCDKEYVSLGALKMHIRTHTLPCVCKICGKAFSRPWLLQGHIRTHTGEKPFSCPHCNRAFADRSNLRAHLQTHSDVKKYQCKNCSKTFSRMSLLHKHEESGCCVAH
B3: IBTK (protein, UniProt Q9P2D0 1-1353)
chain: MSSPMPDCTSKCRSLKHALDVLSVVTKGSENQIKAFLSSHCYNAATIKDVFGRNALHLVSSCGKKGVLDWLIQKGVDLLVKDKESGWTALHRSIFYGHIDCVWSLLKHGVSLYIQDKEGLSALDLVMKDRPTHVVFKNTDPTDVYTWGDNTNFTLGHGSQNSKHHPELVDLFSRSGIYIKQVVLCKFHSVFLSQKGQVYTCGHGPGGRLGHGDEQTCLVPRLVEGLNGHNCSQVAAAKDHTVVLTEDGCVYTFGLNIFHQLGIIPPPSSCNVPRQIQAKYLKGRTIIGVAAGRFHTVLWTREAVYTMGLNGGQLGCLLDPNGEKCVTAPRQVSALHHKDIALSLVAASDGATVCVTTRGDIYLLADYQCKKMASKQLNLKKVLVSGGHMEYKVDPEHLKENGGQKICILAMDGAGRVFCWRSVNSSLKQCRWAYPRQVFISDIALNRNEILFVTQDGEGFRGRWFEEKRKSSEKKEILSNLHNSSSDVSYVSDINSVYERIRLEKLTFAHRAVSVSTDPSGCNFAILQSDPKTSLYEIPAVSSSSFFEEFGKLLREADEMDSIHDVTFQVGNRLFPAHKYILAVHSDFFQKLFLSDGNTSEFTDIYQKDEDSAGCHLFVVEKVHPDMFEYLLQFIYTDTCDFLTHGFKPRIHLNKNPEEYQGTLNSHLNKVNFHEDDNQKSAFEVYKSNQAQTVSERQKSKPKSCKKGKNIREDDPVRMLQTVAKKFDFSNLSSRLDGVRFENEKINVIAKNTGNKLKLSQKKCSFLCDVTMKSVDGKEFPCHKCVLCARLEYFHSMLSSSWIEASSCAALEMPIHSDILKVILDYLYTDEAVVIKESQNVDFICSVLVVADQLLITRLKEICEVALTEKLTLKNAAMLLEFAAMYSAKQLKLSCLQFIGLNMAALLEARSLDVLSDGVLKDLSEFYRKMIPAMDRRVITPYQDGPDISYLEVEDGDIFLKEEINMEQNHSETMFKKAKTKAKKKPRKRSDSSGGYNLSDIIQSPSSTGLLKSGKTNSVESLPELLTSDSEGSYAGVGSPRDLQSPDFTTGFHSDKIEAKVKPYVNGTSPVYSREDLKPWEKSPILKISAPQPIPSNRIDTTSSASWVAGSFSPVSPPVVDLRTIMEIEESRQKCGATPKSHLGKTVSHGVKLSQKQRKMIALTTKENNSGMNSMETVLFTPSKAPKPVNAWASSLHSVSSKSFRDFLLEEKKSVTSHSSGDHVKKVSFKGIENSQAPKIVRCSTHGTPGPEGNHISDLPLLDSPNPWLSSSVTAPSMVAPVTFASIVEEELQQEAALIRSREKPLALIQIEEHAIQDLLVFYEAFGNPEEFVIVERTPQGPLAVPMWNKHGC
B4: CMTR1 (protein, UniProt Q8N1G2 1-835)
chain: MKRRTDPECTAPIKKQKKRVAELALSLSSTSDDEPPSSVSHGAKASTTSLSGSDSETEGKQHSSDSFDDAFKADSLVEGTSSRYSMYNSVSQKLMAKMGFREGEGLGKYSQGRKDIVEASSQKGRRGLGLTLRGFDQELNVDWRDEPEPSACEQVSWFPECTTEIPDTQEMSDWMVVGKRKMIIEDETEFCGEELLHSVLQCKSVFDVLDGEEMRRARTRANPYEMIRGVFFLNRAAMKMANMDFVFDRMFTNPRDSYGKPLVKDREAELLYFADVCAGPGGFSEYVLWRKKWHAKGFGMTLKGPNDFKLEDFYSASSELFEPYYGEGGIDGDGDITRPENISAFRNFVLDNTDRKGVHFLMADGGFSVEGQENLQEILSKQLLLCQFLMALSIVRTGGHFICKTFDLFTPFSVGLVYLLYCCFERVCLFKPITSRPANSERYVVCKGLKVGIDDVRDYLFAVNIKLNQLRNTDSDVNLVVPLEVIKGDHEFTDYMIRSNESHCSLQIKALAKIHAFVQDTTLSEPRQAEIRKECLRLWGIPDQARVAPSSSDPKSKFFELIQGTEIDIFSYKPTLLTSKTLEKIRPVFDYRCMVSGSEQKFLIGLGKSQIYTWDGRQSDRWIKLDLKTELPRDTLLSVEIVHELKGEGKAQRKISAIHILDVLVLNGTDVREQHFNQRIQLAEKFVKAVSKPSRPDMNPIRVKEVYRLEEMEKIFVRLEMKIIKGSSGTPKLSYTGRDDRHFVPMGLYIVRTVNEPWTMGFSKSFKKKFFYNKKTKDSTFDLPADSIAPFHICYYGRLFWEWGDGIRVHDSQKPQDQDKLSKEDVLSFIQMHRA
B5: SRSF8 (protein, UniProt Q9BRL6 1-282)
chain: MSCGRPPPDVDGMITLKVDNLTYRTSPDSLRRVFEKYGRVGDVYIPREPHTKAPRGFAFVRFHDRRDAQDAEAAMDGAELDGRELRVQVARYGRRDLPRSRQGEPRGRSRGGGYGRRSRSYGRRSRSPRRRHRSRSRGPSCSRSRSRSRYRGSRYSRSPYSRSPYSRSRYSRSPYSRSRYRESRYGGSHYSSSGYSNSRYSRYHSSRSHSKSGSSTSSRSASTSKSSSARRSKSSSVSRSRSRSRSSSMTRSPPRVSKRKSKSRSRSKRPPKSPEEEGQMSS
B6: TRIR (protein, UniProt Q9BQ61 1-176)
chain: MAARGRRAEPQGREAPGPAGGGGGGSRWAESGSGTSPESGDEEVSGAGSSPVSGGVNLFANDGSFLELFKRKMEEEQRQRQEEPPPGPQRPDQSAAAAGPGDPKRKGGPGSTLSFVGKRRGGNKLALKTGIVAKKQKTEDEVLTSKGDAWAKYMAEVKKYKAHQCGDDDKTRPLVK
B7: KMT5A (protein, UniProt Q9NQR1 1-393)
chain: MGEGGAAAALVAAAAAAAAAAAAVVAGQRRRRLGRRARCHGPGRAAGGKMSKPCAVEAAAAAVAATAPGPEMVERRGPGRPRTDGENVFTGQSKIYSYMSPNKCSGMRFPLQEENSVTHHEVKCQGKPLAGIYRKREEKRNAGNAVRSAMKSEEQKIKDARKGPLVPFPNQKSEAAEPPKTPPSSCDSTNAAIAKQALKKPIKGKQAPRKKAQGKTQQNRKLTDFYPVRRSSRKSKAELQSEERKRIDELIESGKEEGMKIDLIDGKGRGVIATKQFSRGDFVVEYHGDLIEITDAKKREALYAQDPSTGCYMYYFQYLSKTYCVDATRETNRLGRLINHSKCGNCQTKLHDIDGVPHLILIASRDIAAGEELLYDYGDRSKASIEAHPWLKH

Each molecule was assayed against NELF-E (negative elongation factor subunit E) (human (endogenous in MCF7ras+SS)) (UniProt P18615) (assay: affinity purification with mass spectrometry; qPLEX-RIME: NELF-E antibody (Abcam ab170104) on Protein A Dynabeads; 50 million MCF7ras+SS cells with or without Dox, dual crosslinked (2 mM DSG, 1% formaldehyde), sheared chromatin; TMT-10 quantification against rabbit IgG controls).

Row | binding | Molecule
1 | binds | ENO2 (from UniProt P09104 1-434)
2 | binds | PCNA (from UniProt P12004 1-261)
3 | binds | PRMT1 (from UniProt Q99873 1-371)
4 | binds | NCBP1 (from UniProt Q09161 1-790)
5 | binds | DHX15 (from UniProt O43143 1-795)
6 | binds | CBX3 (from UniProt Q13185 1-183)
7 | binds | SOX9 (doxycycline-induced in MCF7ras+SS) (from UniProt P48436 1-509)
8 | binds | DDX21 (from UniProt Q9NR30 1-783)
9 | binds | RUVBL1 (from UniProt Q9Y265 1-456)
10 | binds | ENO1 (from UniProt P06733 1-434)
11 | binds | HMGB1 (from UniProt P09429 1-215)
12 | binds | B1
13 | binds | B2
14 | binds | B3
15 | binds | B4
16 | binds | B5
17 | binds | B6
18 | binds | B7
